{"source": "PubChem BioAssay AID1259254 (NCATS, 2017)", "screen": "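Genome-wide screen for genes that prevent DNA re-replication in cancer cells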 (primary screen)", "cells": "human HCT116 colorectal cancer cells", "reagents": "single siRNA against human genes", "time to read-out": "3 days", "detection": "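Nuclei stained with Hoechst and imaged; cell-cycle phase assigned by DNA content; G2 share scaled per plate, non-targeting siRNA 0%, GMNN siRNA 100%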", "reading the numbers": "G2 robust z-score and G2 cells, % of GMNN control: higher = more G2 cells, more excess DNA replication", "rule for the call": "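An siRNA counts as active if its G2 robust z-score lies at least 5 MADs above the screen median; here such calls match roughly 38% of GMNN control or more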", "note": "Here is one part, drawn at random, of about 59,000 deposited reagents. About 1,550 of all reagents (2.6%) were called active. 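G2 share is only a proxy for re-replication; each gene was hit by three separate siRNAs, and active genes were retested.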 The numbers tell different reagents against one gene apart. Further read-outs or replicates are left out here. Not given: the amount of reagent."}
{"target gene":"BTN3A3","reagent no.":1,"G2 robust z-score":-0.971,"G2 cells, % of GMNN control":-3.87,"Outcome":"inactive"}
{"target gene":"BTN3A3","reagent no.":2,"G2 robust z-score":-0.17,"G2 cells, % of GMNN control":1.77,"Outcome":"inactive"}
{"target gene":"BTN3A3","reagent no.":3,"G2 robust z-score":-0.693,"G2 cells, % of GMNN control":-1.91,"Outcome":"inactive"}
{"target gene":"PAK2","reagent no.":1,"G2 robust z-score":-0.519,"G2 cells, % of GMNN control":-0.682,"Outcome":"inactive"}
{"target gene":"PAK2","reagent no.":2,"G2 robust z-score":-1.11,"G2 cells, % of GMNN control":-4.81,"Outcome":"inactive"}
{"target gene":"PAK2","reagent no.":3,"G2 robust z-score":-0.262,"G2 cells, % of GMNN control":1.12,"Outcome":"inactive"}
{"target gene":"PPP2R1A","reagent no.":1,"G2 robust z-score":8,"G2 cells, % of GMNN control":59.3,"Outcome":"active"}
{"target gene":"PPP2R1A","reagent no.":2,"G2 robust z-score":6.23,"G2 cells, % of GMNN control":46.8,"Outcome":"active"}
{"target gene":"PPP2R1A","reagent no.":3,"G2 robust z-score":4.74,"G2 cells, % of GMNN control":36.3,"Outcome":"inactive"}
{"target gene":"MSRB1","reagent no.":1,"G2 robust z-score":0.201,"G2 cells, % of GMNN control":4.38,"Outcome":"inactive"}
{"target gene":"MSRB1","reagent no.":2,"G2 robust z-score":-1.12,"G2 cells, % of GMNN control":-4.95,"Outcome":"inactive"}
{"target gene":"MSRB1","reagent no.":3,"G2 robust z-score":-0.937,"G2 cells, % of GMNN control":-3.63,"Outcome":"inactive"}
{"target gene":"TRIM31","reagent no.":1,"G2 robust z-score":0.706,"G2 cells, % of GMNN control":7.94,"Outcome":"inactive"}
{"target gene":"TRIM31","reagent no.":2,"G2 robust z-score":1.05,"G2 cells, % of GMNN control":10.3,"Outcome":"inactive"}
{"target gene":"TRIM31","reagent no.":3,"G2 robust z-score":-0.987,"G2 cells, % of GMNN control":-3.97,"Outcome":"inactive"}
{"target gene":"TLE2","reagent no.":1,"G2 robust z-score":10.3,"G2 cells, % of GMNN control":75.3,"Outcome":"active"}
{"target gene":"TLE2","reagent no.":2,"G2 robust z-score":3.66,"G2 cells, % of GMNN control":28.7,"Outcome":"inactive"}
{"target gene":"TLE2","reagent no.":3,"G2 robust z-score":0.0598,"G2 cells, % of GMNN control":3.39,"Outcome":"inactive"}
{"target gene":"RFX4","reagent no.":1,"G2 robust z-score":-0.508,"G2 cells, % of GMNN control":-0.606,"Outcome":"inactive"}
{"target gene":"RFX4","reagent no.":2,"G2 robust z-score":-0.745,"G2 cells, % of GMNN control":-2.28,"Outcome":"inactive"}
{"target gene":"RFX4","reagent no.":3,"G2 robust z-score":0.605,"G2 cells, % of GMNN control":7.23,"Outcome":"inactive"}
{"target gene":"WDR7","reagent no.":1,"G2 robust z-score":-0.689,"G2 cells, % of GMNN control":-1.88,"Outcome":"inactive"}
{"target gene":"WDR7","reagent no.":2,"G2 robust z-score":4.13,"G2 cells, % of GMNN control":32,"Outcome":"inactive"}
{"target gene":"WDR7","reagent no.":3,"G2 robust z-score":3.39,"G2 cells, % of GMNN control":26.8,"Outcome":"inactive"}
{"target gene":"LIPE","reagent no.":1,"G2 robust z-score":5,"G2 cells, % of GMNN control":38.1,"Outcome":"inactive"}
{"target gene":"LIPE","reagent no.":2,"G2 robust z-score":-1.26,"G2 cells, % of GMNN control":-5.86,"Outcome":"inactive"}
{"target gene":"LIPE","reagent no.":3,"G2 robust z-score":-1.12,"G2 cells, % of GMNN control":-4.88,"Outcome":"inactive"}
{"target gene":"GJB2","reagent no.":1,"G2 robust z-score":0.324,"G2 cells, % of GMNN control":5.25,"Outcome":"inactive"}
{"target gene":"GJB2","reagent no.":2,"G2 robust z-score":1.14,"G2 cells, % of GMNN control":11,"Outcome":"inactive"}
{"target gene":"GJB2","reagent no.":3,"G2 robust z-score":-0.629,"G2 cells, % of GMNN control":-1.46,"Outcome":"inactive"}

Looked up above.
Under “G2 robust z-score”, TLE2 #2 reads 3.66
Result of WDR7 #3 in “G2 cells, % of GMNN control”: 26.8
RFX4 #1, G2 robust z-score → -0.508
For “G2 robust z-score”, TLE2 #1 shows 10.3
